Source: paper PMC5752520
These are yes or no findings as the source states them, for the method shown. For some assays here: In cells and extracts the contact can be indirect. Some results given as binding are weak or reduced against the parent protein; the word gives no strength. Sequences can lack the tags named with a protein.

Protein sequences, listed by entry. Tags and fused reporters are not part of them.
UniProt P10275: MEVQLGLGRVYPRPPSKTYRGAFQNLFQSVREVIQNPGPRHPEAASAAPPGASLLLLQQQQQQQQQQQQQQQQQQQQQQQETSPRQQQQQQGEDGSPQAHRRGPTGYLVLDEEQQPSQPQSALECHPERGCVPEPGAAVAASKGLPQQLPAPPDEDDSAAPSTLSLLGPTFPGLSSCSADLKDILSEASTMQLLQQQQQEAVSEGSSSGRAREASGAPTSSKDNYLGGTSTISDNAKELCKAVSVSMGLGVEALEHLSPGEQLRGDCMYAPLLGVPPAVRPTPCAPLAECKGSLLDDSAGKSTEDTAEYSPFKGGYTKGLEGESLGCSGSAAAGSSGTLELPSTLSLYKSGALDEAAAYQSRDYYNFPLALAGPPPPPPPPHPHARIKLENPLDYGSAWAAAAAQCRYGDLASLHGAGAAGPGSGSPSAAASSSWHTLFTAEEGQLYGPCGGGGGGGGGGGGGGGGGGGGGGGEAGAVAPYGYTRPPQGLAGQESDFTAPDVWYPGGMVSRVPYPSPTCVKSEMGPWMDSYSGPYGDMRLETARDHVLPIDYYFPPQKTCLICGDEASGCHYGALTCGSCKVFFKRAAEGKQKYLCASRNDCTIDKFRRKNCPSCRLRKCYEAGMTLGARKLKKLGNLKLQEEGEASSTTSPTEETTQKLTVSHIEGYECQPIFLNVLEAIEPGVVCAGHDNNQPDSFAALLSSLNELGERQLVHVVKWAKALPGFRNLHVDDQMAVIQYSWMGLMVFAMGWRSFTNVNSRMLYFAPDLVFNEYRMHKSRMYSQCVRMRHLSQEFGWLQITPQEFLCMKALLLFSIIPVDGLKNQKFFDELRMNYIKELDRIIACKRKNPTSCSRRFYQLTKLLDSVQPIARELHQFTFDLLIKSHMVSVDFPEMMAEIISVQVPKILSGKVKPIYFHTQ

What was measured:
GST-ETS1 = biological target: T1, GST-ETS1 (UniProt P14921); experiment: pull-down; GST-AR, GST-ETS1 or GST on glutathione-Sepharose beads incubated with purified FLAG-ETS1 or FLAG-AR at 4°C, in the presence or absence of 100 nM DHT; SDS-PAGE and western blotting; both purified
T1 sequence: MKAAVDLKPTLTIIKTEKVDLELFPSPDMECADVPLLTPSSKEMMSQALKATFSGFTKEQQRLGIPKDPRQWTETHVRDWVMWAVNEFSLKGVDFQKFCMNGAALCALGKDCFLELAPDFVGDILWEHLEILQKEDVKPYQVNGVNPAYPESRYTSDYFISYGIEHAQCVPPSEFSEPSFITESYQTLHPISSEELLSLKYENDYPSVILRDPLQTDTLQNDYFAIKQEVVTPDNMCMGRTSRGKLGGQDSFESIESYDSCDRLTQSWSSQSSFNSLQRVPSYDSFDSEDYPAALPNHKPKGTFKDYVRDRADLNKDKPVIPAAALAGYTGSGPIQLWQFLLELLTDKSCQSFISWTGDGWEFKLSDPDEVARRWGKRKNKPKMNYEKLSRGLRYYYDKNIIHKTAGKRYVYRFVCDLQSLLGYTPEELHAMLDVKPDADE

FLAG-tagged ETS-1 = biological target: T2, FLAG-tagged ETS-1 (UniProt P14921); experiment: co-IP; HepG2 cells transfected with FLAG-AR or FLAG-ETS1 (or FLAG empty vector); lysates immunoprecipitated with anti-FLAG monoclonal antibody, blotted with anti-ETS-1 or anti-AR; treated without or with 100 nM DHT
T2 sequence: T1 sequence

binding (GST-ETS1)	binding (FLAG-tagged ETS-1)	Substance
binds		purified FLAG-labeled AR (from UniProt P10275 1-920) (receptor)
	binds	endogenous androgen receptor (AR) (from UniProt P10275 1-920)
